# Reference: PubChem BioAssay
# Amino acid sequences for entries named in this document (tags omitted).
# UniProt P08183, whole entry, looked up: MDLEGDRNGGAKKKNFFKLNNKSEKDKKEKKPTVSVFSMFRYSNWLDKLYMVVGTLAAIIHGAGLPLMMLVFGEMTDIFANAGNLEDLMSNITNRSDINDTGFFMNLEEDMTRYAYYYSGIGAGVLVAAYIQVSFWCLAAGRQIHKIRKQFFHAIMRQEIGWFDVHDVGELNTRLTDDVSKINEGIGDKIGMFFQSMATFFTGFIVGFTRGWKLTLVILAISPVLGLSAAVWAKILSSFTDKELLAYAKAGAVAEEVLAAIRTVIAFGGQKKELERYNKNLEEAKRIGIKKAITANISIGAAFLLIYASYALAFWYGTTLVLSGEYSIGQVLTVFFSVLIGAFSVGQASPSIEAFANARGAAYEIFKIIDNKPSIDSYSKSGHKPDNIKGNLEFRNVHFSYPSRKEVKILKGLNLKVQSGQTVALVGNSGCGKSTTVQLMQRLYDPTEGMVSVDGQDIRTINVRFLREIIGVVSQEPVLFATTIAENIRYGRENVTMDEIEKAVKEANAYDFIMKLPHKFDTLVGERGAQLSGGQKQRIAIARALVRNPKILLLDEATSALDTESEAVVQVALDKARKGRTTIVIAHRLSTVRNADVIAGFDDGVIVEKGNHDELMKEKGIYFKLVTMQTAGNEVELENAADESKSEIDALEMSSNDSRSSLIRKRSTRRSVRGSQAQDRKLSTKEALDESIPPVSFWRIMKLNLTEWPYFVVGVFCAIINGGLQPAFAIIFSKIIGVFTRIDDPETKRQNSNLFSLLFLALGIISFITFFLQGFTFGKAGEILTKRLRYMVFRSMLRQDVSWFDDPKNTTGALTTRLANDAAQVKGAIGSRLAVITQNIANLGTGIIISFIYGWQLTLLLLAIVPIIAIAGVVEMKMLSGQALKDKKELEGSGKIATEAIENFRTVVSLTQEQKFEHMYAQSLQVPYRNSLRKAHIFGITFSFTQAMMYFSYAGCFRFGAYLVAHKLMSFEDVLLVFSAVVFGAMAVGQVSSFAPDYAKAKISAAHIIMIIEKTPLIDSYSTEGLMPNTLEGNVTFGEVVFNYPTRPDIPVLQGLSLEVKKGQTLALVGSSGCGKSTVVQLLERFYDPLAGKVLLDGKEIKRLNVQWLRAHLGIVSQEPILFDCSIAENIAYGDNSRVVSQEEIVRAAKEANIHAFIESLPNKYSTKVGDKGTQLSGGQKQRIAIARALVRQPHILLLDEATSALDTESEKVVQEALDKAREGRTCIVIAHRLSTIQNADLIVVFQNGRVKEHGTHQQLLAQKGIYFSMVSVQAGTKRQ
# Inconclusive results, whose numbers are uncertain, are shown with a selection of clear calls. For part of these data: Potencies beside an inconclusive call are fits to weak or partial responses and may not hold up. Calls of active or inactive are those of the source. Unless noted, the limit is not given here; nearly all actives have AC50 up to about 26 µM.
# Columns and labels:
# [1] = growth inhibition of DIPG glioma cells, dose response, cell-based, SU-DIPG-XVII, MIPE5.0, CellTiter-Glo, qHTS (AID 1347060); conditions: SU-DIPG-XVII viability, CellTiter-Glo ATP luminescence;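 as to AC50: cells exposed to compound for 48 hours before viability readout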
# [2] = growth inhibition of DIPG glioma cells, dose response, cell-based, SU-DIPG-IV, MIPE4.0, CellTiter-Glo, qHTS (AID 1347063; cut-off not given, nearly all actives have AC50 up to about 30 µM;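 also: compound exposure lasted 48 hours before the viability readout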); conditions: SU-DIPG-IV viability, CellTiter-Glo ATP luminescence
# [3] = viability loss in pontine glioma line – cell-based, SU-DIPG-XXV, MIPE5.0, CellTiter-Glo, qHTS, dose response (AID 1347065); conditions: CellTiter-Glo ATP luminescence;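 also: cells exposed to compound for 48 hours before ATP readout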
# [4] = JHH-DIPG-1 glioma cell viability, MIPE5.0 library, CellTiter-Glo luminescence, qHTS (AID 1347067); conditions: JHH-DIPG-1 glioma viability, CellTiter-Glo ATP luminescence;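 also: cells exposed to compound for 48 hours before readout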
# [5] = SU-DIPG-XXV glioma cell viability, MIPE5.0 library, qHTS (AID 1347068; cut-off not given, nearly all actives have IC50 up to about 30 µM;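 as to IC50: cells exposed to compound for 48 hours before viability readout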)
# [6] = growth inhibition of DIPG glioma cells, dose response, cell-based, SU-DIPG-XIII, MIPE5.0, CellTiter-Glo, qHTS (AID 1347064; cut-off not given, nearly all actives have AC50 up to about 23 µM;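 as to AC50: cells exposed to compound for 48 hours before the viability read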); conditions: SU-DIPG-XIII viability, CellTiter-Glo ATP luminescence
# [7] = SU-DIPG-VI glioma cell viability, MIPE4.0 library, CellTiter-Glo luminescence, qHTS (AID 1347066; cut-off not given, nearly all actives have AC50 up to about 30 µM;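 also: cells exposed to compound for 48 hours before readout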); conditions: CellTiter-Glo ATP luminescence
# [8] = inhibitors of polyQ aggregate elongation, biochemical, solid-phase synthetic aggregates, QA3 (AID 1585; call rule not given here); conditions: biotin-polyQ incorporation, at 100 µM, stronger effect = higher value
# [9] = polyglutamine aggregation reduction, turbidity readout, qthio, single concentration 25 µM screen (AID 1588; call rule not given here); conditions: at 25 µM, stronger effect = lower value
# [10] = enhancers of SMN2 over SMN1 splicing, cell-based, SMN2/SMN1 luciferase reporters (AID 1598; call rule not given here); conditions: SMN2 vs SMN1 luciferase splicing reporter cells; at 10 µM; stronger effect = higher value
# [11] = molecular target: ATP-dependent translocase ABCB1 (Homo sapiens) (UniProt P08183); assay: MDR1 (ABCB1) efflux transporter inhibition, cell-based (AID 377; in the data active = fluorescence slope change above about 50%; inconclusive = mostly about 31% to 49%); conditions: MDR1-expressing cells, fluorescent substrate accumulation slope; stronger effect = higher value; concentration not given here
# [12] = protection of motor neurons from glutamate death, cell-based, TUNEL DNA degradation staining, MNGlu (AID 1594; call rule not given here); conditions: glutamate-induced death, at 1 µM, stronger effect = higher value
smiles,measurement,setting,value
CC(=O)OCC(=O)[C@@]1(O)CC[C@H]2[C@@H]3CCC4=CC(=O)C=C[C@]4(C)[C@H]3[C@@H](O)C[C@@]21C,AC50,[1],inconclusive: 33.2 µM [cytotoxic]
same,AC50,[2],inconclusive: 0.00372 µM
same,outcome,[3],inactive
same,outcome,[4],inactive
same,outcome,[5],inactive
CC(C)(Cc1ccc2ccccc2c1)NC[C@@H](O)COc1cccc(Cl)c1C#N,AC50,[1],inconclusive: 7.42 µM [cytotoxic]
same,AC50,[2],inconclusive: 23.5 µM [cytotoxic]
same,AC50,[6],active: 8.33 µM
same,AC50,[7],inconclusive: 0.00105 µM [cytotoxic]
same,AC50,[4],active: 10.5 µM
same,IC50,[5],active: 13.2 µM
Cn1c2cc(S(C)=O)sc2c2cnn(Cc3cccc(N)c3)c(=O)c21 (stereo not drawn),outcome,[1],inactive
same,outcome,[2],inactive
same,AC50,[6],inconclusive: 0.00934 µM [cytotoxic]
same,outcome,[4],inactive
Nc1nc2c(ncn2COCCO)c(=O)[nH]1,inhibition,[8],inconclusive: 13.4%
same,aggregation (% of control),[9],inconclusive: 117%
same,SMN2/SMN1 luciferase ratio,[10],inconclusive: 1.03
same,outcome,[1],inactive
same,outcome,[2],inactive
same,AC50,[6],inconclusive: 4.68 µM [cytotoxic]
same,AC50,[7],inconclusive: 0.0372 µM
OC(CCN1CCCCC1)(c1ccccc1)C1CC2C=CC1C2 (stereo not drawn),fluorescence slope change,[11],inactive: 23%
same,AC50,[1],inconclusive: 20.9 µM [cytotoxic]
same,outcome,[2],inactive
same,AC50,[6],inconclusive: 6.61 µM [cytotoxic]
same,outcome,[3],inactive
same,outcome,[4],inactive
COc1c(N2C[C@@H]3CCCN[C@@H]3C2)c(F)cc2c(=O)c(C(=O)O)cn(C3CC3)c12,AC50,[1],inconclusive: 16.6 µM [cytotoxic]
same,outcome,[2],inactive
same,outcome,[6],inactive
same,AC50,[7],inconclusive: 0.059 µM
same,outcome,[5],inactive
C[C@H]1[C@H](C)CC[C@]2(C(=O)O)CC[C@]3(C)C(=CC[C@@H]4[C@@]5(C)C[C@@H](O)[C@H](O)[C@@](C)(CO)[C@@H]5CC[C@]43C)[C@H]12,outcome,[1],inactive
same,AC50,[2],inconclusive: 4.18 µM [cytotoxic]
same,outcome,[6],inactive
same,outcome,[3],inactive
same,AC50,[4],inconclusive: 37.2 µM [cytotoxic]
CN(C)c1ccc(C2Nc3ccc4ccccc4c3C3=C2C(=O)CC(C)(C)C3)cc1Br (stereo not drawn),outcome,[1],inactive
same,AC50,[2],inconclusive: 4.18 µM [cytotoxic]
same,AC50,[6],inconclusive: 20.9 µM [cytotoxic]
same,AC50,[3],inconclusive: 13.2 µM [cytotoxic]
same,IC50,[5],inconclusive: 5.25 µM [cytotoxic]
COc1c2occc2cc2ccc(=O)oc12,inhibition,[8],inconclusive: -13.9%
same,aggregation (% of control),[9],inconclusive: 108%
same,SMN2/SMN1 luciferase ratio,[10],inconclusive: 1.14
same,outcome,[1],inactive
same,outcome,[2],inactive
same,outcome,[6],inactive
same,AC50,[3],inconclusive: 13.2 µM [cytotoxic]
same,outcome,[4],inactive
same,outcome,[5],inactive
Cc1ccnc(NS(=O)(=O)c2ccc(NC(=O)Nc3ccc(S(=O)(=O)Nc4nccc(C)n4)cc3)cc2)n1,AC50,[1],inconclusive: 29.5 µM [cytotoxic]
same,AC50,[2],active: 14.8 µM
same,AC50,[6],inconclusive: 0.332 µM [cytotoxic]
same,outcome,[5],inactive
CCOC(=O)N[C@@H]1CC[C@@H]2[C@@H](C1)C[C@H]1C(=O)O[C@H](C)[C@H]1[C@H]2/C=C/c1ccc(-c2cccc(F)c2)cn1,AC50,[1],inconclusive: 29.5 µM [cytotoxic]
same,AC50,[2],inconclusive: 18.7 µM [cytotoxic]
same,outcome,[6],inactive
same,AC50,[3],inconclusive: 18.6 µM [cytotoxic]
same,outcome,[4],inactive
same,outcome,[5],inactive
Cc1csc(-c2nnc(Nc3ccc(Oc4ncccc4-c4ccnc(N)n4)cc3)c3ccccc23)c1,AC50,[1],inconclusive: 0.0059 µM [cytotoxic]
same,AC50,[2],inconclusive: 0.00296 µM [cytotoxic]
same,AC50,[6],inconclusive: 16.6 µM [cytotoxic]
same,IC50,[5],inconclusive: 18.6 µM
O=C(NC[C@H]1CN(c2ccc(N3CCOCC3=O)cc2)C(=O)O1)c1ccc(Cl)s1,AC50,[1],inconclusive: 13.2 µM [cytotoxic]
same,AC50,[2],inconclusive: 11.8 µM [cytotoxic]
same,AC50,[6],inconclusive: 0.00166 µM
same,AC50,[3],inconclusive: 0.0148 µM [cytotoxic]
same,outcome,[4],inactive
CCCCN(CCCC)CC(O)c1cc(Cl)cc2c1-c1ccc(Cl)cc1/C2=C/c1ccc(Cl)cc1 (stereo not drawn),AC50,[1],inconclusive: 26.3 µM [cytotoxic]
same,AC50,[2],active: 26.4 µM
same,AC50,[6],inconclusive: 7.42 µM [cytotoxic]
same,AC50,[3],inconclusive: 13.2 µM [cytotoxic]
same,outcome,[7],inactive
same,AC50,[4],active: 18.6 µM
same,outcome,[5],inactive
Nc1c2c(nc3ccccc13)CCCC2,inhibition,[8],inconclusive: 26.1%
same,aggregation (% of control),[9],inconclusive: 109%
same,SMN2/SMN1 luciferase ratio,[10],inconclusive: 1
same,outcome,[1],inactive
same,outcome,[2],inactive
same,outcome,[7],inactive
same,outcome,[4],inactive
Cc1ccn(-c2ccc(-c3ncco3)cc2)c(=O)c1-c1ccc2nc(N)ncc2c1,AC50,[1],inconclusive: 4.68 µM [cytotoxic]
same,outcome,[2],inactive
same,AC50,[6],inconclusive: 13.2 µM [cytotoxic]
same,AC50,[3],inconclusive: 3.72 µM [cytotoxic]
same,outcome,[4],inactive
same,IC50,[5],inconclusive: 4.17 µM [cytotoxic]
Cc1cnc(-c2cnc(NCCNc3ccc(C#N)cn3)nc2-c2ccc(Cl)cc2Cl)[nH]1,AC50,[1],inconclusive: 3.72 µM
same,AC50,[2],inconclusive: 26.4 µM [cytotoxic]
same,AC50,[6],inconclusive: 0.833 µM
same,AC50,[7],inconclusive: 1.66 µM
same,AC50,[4],inconclusive: 0.332 µM
C=CC(=O)Nc1cccc(Nc2nc(Nc3ccc(Oc4ccnc(C(=O)NC)c4)cc3)ncc2F)c1,AC50,[1],active: 10.5 µM
same,AC50,[6],inconclusive: 13.2 µM [cytotoxic]
O=C(C1CCCCC1)N1CC(=O)N2CCc3ccccc3C2C1 (stereo not drawn),fluorescence slope change,[11],inconclusive: 46%
same,inhibition,[8],inconclusive: -2.17%
same,aggregation (% of control),[9],inconclusive: 98.5%
same,protection,[12],inconclusive: -1%
same,SMN2/SMN1 luciferase ratio,[10],inconclusive: 1.04
same,AC50,[1],active: 26.3 µM
same,outcome,[2],inactive
same,outcome,[3],inactive
same,outcome,[7],inactive
O=C(N[C@@H](c1ccccc1)[C@@H]1CCCCN1)c1cccc(C(F)(F)F)c1Cl,AC50,[1],inconclusive: 20.9 µM [cytotoxic]
same,AC50,[2],inconclusive: 16.6 µM [cytotoxic]
same,AC50,[6],inconclusive: 0.0263 µM [cytotoxic]
same,AC50,[4],inconclusive: 33.2 µM [cytotoxic]
N#CC[C@H](C1CCCC1)n1cc(-c2ncnc3[nH]ccc23)cn1,AC50,[1],inconclusive: 105 µM [cytotoxic]
same,outcome,[2],inactive
same,AC50,[6],inconclusive: 33.2 µM [cytotoxic]
same,AC50,[3],inconclusive: 37.2 µM [cytotoxic]
same,AC50,[4],inconclusive: 29.5 µM [cytotoxic]
same,outcome,[5],inactive
COc1cccc(OC)c1-c1cc(C(=O)NC2(C(=O)O)C3CC4CC(C3)CC2C4)nn1-c1ccnc2cc(Cl)ccc12 (stereo not drawn),AC50,[1],active: 14.8 µM
same,AC50,[2],inconclusive: 37.2 µM [cytotoxic]
same,AC50,[6],inconclusive: 26.3 µM [cytotoxic]
same,outcome,[7],inactive
same,AC50,[4],inconclusive: 26.3 µM [cytotoxic]
same,outcome,[5],inactive
Cc1cccc(Nc2nc(-c3ccncc3)cs2)c1,AC50,[1],inconclusive: 23.5 µM [cytotoxic]
same,AC50,[2],inconclusive: 20.9 µM [cytotoxic]
same,AC50,[6],inconclusive: 33.2 µM [cytotoxic]
same,AC50,[4],inconclusive: 37.2 µM [cytotoxic]
CC1=C(/C=C/C(C)=C/C=C/C(C)=C/C=C/C=C(C)/C=C/C=C(C)/C=C/C2=C(C)CCCC2(C)C)C(C)(C)CCC1,inhibition,[8],inconclusive: 12.5%
same,aggregation (% of control),[9],inconclusive: 97.2%
same,protection,[12],inconclusive: -4%
same,SMN2/SMN1 luciferase ratio,[10],inconclusive: 0.98
same,AC50,[1],inconclusive: 23.5 µM [cytotoxic]
same,AC50,[2],inconclusive: 11.8 µM [cytotoxic]
same,AC50,[6],inconclusive: 37.2 µM [cytotoxic]
same,AC50,[3],inconclusive: 29.5 µM [cytotoxic]
same,outcome,[7],inactive
same,AC50,[4],inconclusive: 33.2 µM [cytotoxic]
CCn1cc(C(=O)O)c(=O)c2cc(F)c(N3CCNCC3)cc21,inhibition,[8],inconclusive: -2.45%
same,aggregation (% of control),[9],inconclusive: 96.3%
same,SMN2/SMN1 luciferase ratio,[10],inconclusive: 0.86
same,AC50,[1],inconclusive: 33.2 µM [cytotoxic]
same,AC50,[2],inconclusive: 0.264 µM
same,outcome,[6],inactive
same,AC50,[4],inconclusive: 4.68 µM [cytotoxic]
CC1(C(=O)O)CCC2(C)CCC3(C)C(=CC(=O)C4C5(C)CCC(OC6OC(C(=O)O)C(O)C(O)C6OC6OC(C(=O)O)C(O)C(O)C6O)C(C)(C)C5CCC43C)C2C1 (stereo not drawn),AC50,[1],inconclusive: 37.2 µM [cytotoxic]
same,outcome,[6],inactive
same,outcome,[3],inactive
Clc1cccc(C(c2ccc3nc[nH]c3c2)n2ccnc2)c1 (stereo not drawn),AC50,[1],inconclusive: 0.148 µM
same,outcome,[6],inactive
O=C(O)CCNc1cc(N2CCc3ccccc3CC2)nc(-c2cccnc2)n1,outcome,[1],inactive
same,AC50,[6],inconclusive: 0.00105 µM
same,AC50,[3],inconclusive: 26.3 µM [cytotoxic]
O=C(Cc1cccc(OC(F)(F)F)c1)Nc1ccc(CCCCc2nnc(NC(=O)Cc3ccccn3)s2)nn1,AC50,[1],inconclusive: 23.5 µM [cytotoxic]
same,AC50,[6],active: 13.2 µM
same,AC50,[3],active: 14.8 µM
N=C(N)c1ccc2cc(OC(=O)c3ccc(N=C(N)N)cc3)ccc2c1,AC50,[1],inconclusive: 0.00105 µM
same,outcome,[6],inactive
C1Cc2[nH]nc(-c3nn[nH]n3)c2C1,outcome,[1],inactive
same,AC50,[6],inconclusive: 0.00235 µM
same,outcome,[3],inactive
CN1C[C@@H]2c3ccccc3Oc3ccc(Cl)cc3[C@H]2C1,outcome,[1],inactive
same,AC50,[6],inconclusive: 18.6 µM [cytotoxic]
same,AC50,[3],inconclusive: 52.5 µM [cytotoxic]
O=C(Nc1ccc(S(=O)(=O)N2CCOCC2)cc1)c1cc(Cl)ccc1NS(=O)(=O)c1ccc(Cl)s1,outcome,[1],inactive
same,AC50,[6],inconclusive: 0.00525 µM [cytotoxic]
COc1cc2ncn(-c3cc(OCc4ccccc4S(C)(=O)=O)c(C#N)s3)c2cc1OC,AC50,[1],inconclusive: 0.00132 µM
same,AC50,[6],inconclusive: 0.0209 µM
same,outcome,[3],inactive

# 4 neighbouring records from above, for reference:
smiles,measurement,setting,value
O=C(Cc1cccc(OC(F)(F)F)c1)Nc1ccc(CCCCc2nnc(NC(=O)Cc3ccccn3)s2)nn1,AC50,[1],inconclusive: 23.5 µM [cytotoxic]
same,AC50,[6],active: 13.2 µM
same,AC50,[3],active: 14.8 µM
N=C(N)c1ccc2cc(OC(=O)c3ccc(N=C(N)N)cc3)ccc2c1,AC50,[1],inconclusive: 0.00105 µM
